Measured data: PubChem BioAssay AID1259405 (NCATS, 2018)

- Aim: 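Knock-downs that lift recombinant protein yield in hamster ovary cells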 (primary screen)
- System: Chinese hamster CHO-K1 ovary cells with stable secreted eGFP expression
- Reagents: single siRNA against mouse genes, 0.8 pmol siRNA per well (2 µl of 400 nM stock)
- Timing: 3 days
- Read-out: 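Percent of the per-plate non-targeting control median for intracellular GFP per well by laser scanning cytometry and for cell viability by ATP luminescence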
- Direction: GFP, % of control: higher = more GFP per well, higher productivity; viability (ATP), % of control: higher = more viable cells (more ATP)
- Call rule: 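Called active when intracellular GFP, relative to negative control, is at or above 120%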
Here is one part, drawn at random, of about 50,000 deposited reagents. Over the whole deposit, about 4,000 (8%) are marked active. 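Mouse siRNA library applied to hamster cells; one well for each siRNA.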 Entries without a mark were called inactive. Reagents against one gene are numbered here. Reagent sequences are not shown.

Rpf2 (ribosome production factor 2 homolog) #1 | GFP, % of control: 74.9; viability (ATP), % of control: 95.6
Rpf2 (ribosome production factor 2 homolog) #2 | GFP, % of control: 49.1; viability (ATP), % of control: 43.5
Rpf2 (ribosome production factor 2 homolog) #3 | GFP, % of control: 63.4; viability (ATP), % of control: 67
Gpr135 (G protein-coupled receptor 135) #1 | GFP, % of control: 156 (active); viability (ATP), % of control: 104
Gpr135 (G protein-coupled receptor 135) #2 | GFP, % of control: 58.6; viability (ATP), % of control: 59.8
Gpr135 (G protein-coupled receptor 135) #3 | GFP, % of control: 107; viability (ATP), % of control: 63.8
Oaz3 (ornithine decarboxylase antizyme 3) #1 | GFP, % of control: 86.6; viability (ATP), % of control: 96.9
Oaz3 (ornithine decarboxylase antizyme 3) #2 | GFP, % of control: 88.2; viability (ATP), % of control: 67.1
Icam5 (intercellular adhesion molecule 5, telencephalin) #1 | GFP, % of control: 153 (active); viability (ATP), % of control: 97.4
Icam5 (intercellular adhesion molecule 5, telencephalin) #2 | GFP, % of control: 83; viability (ATP), % of control: 71.2
Zic2 (zinc finger protein of the cerebellum 2) #1 | GFP, % of control: 91.4; viability (ATP), % of control: 110
Zic2 (zinc finger protein of the cerebellum 2) #2 | GFP, % of control: 71.6; viability (ATP), % of control: 94.6
Ift22 (intraflagellar transport 22) #1 | GFP, % of control: 75.9; viability (ATP), % of control: 73.8
Ift22 (intraflagellar transport 22) #2 | GFP, % of control: 57.7; viability (ATP), % of control: 69.2
Ift22 (intraflagellar transport 22) #3 | GFP, % of control: 67.8; viability (ATP), % of control: 79.2
Melk (maternal embryonic leucine zipper kinase) | GFP, % of control: 51.6; viability (ATP), % of control: 76.9
Eps15l1 (EGFR pathway substrate 15-like 1) #1 | GFP, % of control: 141 (active); viability (ATP), % of control: 109
Eps15l1 (EGFR pathway substrate 15-like 1) #2 | GFP, % of control: 83.2; viability (ATP), % of control: 95.8
Eps15l1 (EGFR pathway substrate 15-like 1) #3 | GFP, % of control: 74.3; viability (ATP), % of control: 80.6
Snx8 (sorting nexin 8) #1 | GFP, % of control: 61; viability (ATP), % of control: 97.5
Snx8 (sorting nexin 8) #2 | GFP, % of control: 85.7; viability (ATP), % of control: 78.2
Hsd3b6 #1 | GFP, % of control: 92.2; viability (ATP), % of control: 109
Hsd3b6 #2 | GFP, % of control: 73.6; viability (ATP), % of control: 79.6
Or7e175 (olfactory receptor family 7 subfamily E member 175) #1 | GFP, % of control: 69; viability (ATP), % of control: 36.4
Or7e175 (olfactory receptor family 7 subfamily E member 175) #2 | GFP, % of control: 48.3; viability (ATP), % of control: 61.4
Or7e175 (olfactory receptor family 7 subfamily E member 175) #3 | GFP, % of control: 104; viability (ATP), % of control: 97.3
Itgb8 (integrin beta 8) #1 | GFP, % of control: 50.8; viability (ATP), % of control: 50.1
Itgb8 (integrin beta 8) #2 | GFP, % of control: 75.1; viability (ATP), % of control: 50.9
Itgb8 (integrin beta 8) #3 | GFP, % of control: 75.1; viability (ATP), % of control: 96.1
Rnf225 (ring finger protein 225) #1 | GFP, % of control: 68.6; viability (ATP), % of control: 69
Rnf225 (ring finger protein 225) #2 | GFP, % of control: 63.4; viability (ATP), % of control: 95.4
Rnf225 (ring finger protein 225) #3 | GFP, % of control: 56.1; viability (ATP), % of control: 67.1
Mgat4f (MGAT4 family, member F) #1 | GFP, % of control: 63.2; viability (ATP), % of control: 100
Mgat4f (MGAT4 family, member F) #2 | GFP, % of control: 64.3; viability (ATP), % of control: 77.7
Mgat4f (MGAT4 family, member F) #3 | GFP, % of control: 66.2; viability (ATP), % of control: 85.9
Rps6ka3 (ribosomal protein S6 kinase A3) #1 | GFP, % of control: 36.9; viability (ATP), % of control: 41.9
Rps6ka3 (ribosomal protein S6 kinase A3) #2 | GFP, % of control: 81; viability (ATP), % of control: 64.1
Rps6ka3 (ribosomal protein S6 kinase A3) #3 | GFP, % of control: 91.3; viability (ATP), % of control: 82.2
Slit1 (slit guidance ligand 1) #1 | GFP, % of control: 146 (active); viability (ATP), % of control: 64.4
Slit1 (slit guidance ligand 1) #2 | GFP, % of control: 101; viability (ATP), % of control: 89.3
Slit1 (slit guidance ligand 1) #3 | GFP, % of control: 107; viability (ATP), % of control: 73
Eif2ak2 (eukaryotic translation initiation factor 2-alpha kinase 2) | GFP, % of control: 56.1; viability (ATP), % of control: 64
Sstr5 (somatostatin receptor 5) #1 | GFP, % of control: 111; viability (ATP), % of control: 86.1
Sstr5 (somatostatin receptor 5) #2 | GFP, % of control: 62.9; viability (ATP), % of control: 64.8
Sstr5 (somatostatin receptor 5) #3 | GFP, % of control: 59.9; viability (ATP), % of control: 45.3
Gstm2 (glutathione S-transferase, mu 2) #1 | GFP, % of control: 110; viability (ATP), % of control: 72.5
Gstm2 (glutathione S-transferase, mu 2) #2 | GFP, % of control: 88.8; viability (ATP), % of control: 153
Gstm2 (glutathione S-transferase, mu 2) #3 | GFP, % of control: 107; viability (ATP), % of control: 110
Pbp2 (phosphatidylethanolamine binding protein 2) #1 | GFP, % of control: 14.5; viability (ATP), % of control: 13.2
Pbp2 (phosphatidylethanolamine binding protein 2) #2 | GFP, % of control: 75.9; viability (ATP), % of control: 81.2
Pbp2 (phosphatidylethanolamine binding protein 2) #3 | GFP, % of control: 79.6; viability (ATP), % of control: 77.2
Mme (membrane metallo endopeptidase) #1 | GFP, % of control: 76.6; viability (ATP), % of control: 102
Mme (membrane metallo endopeptidase) #2 | GFP, % of control: 70.2; viability (ATP), % of control: 75.2
Mme (membrane metallo endopeptidase) #3 | GFP, % of control: 56.6; viability (ATP), % of control: 69.7

Ordered by “viability (ATP), % of control” (high to low): 7 of the entries above
Gpr135 (G protein-coupled receptor 135) #1 | GFP, % of control: 156 (active); viability (ATP), % of control: 104
Oaz3 (ornithine decarboxylase antizyme 3) #1 | GFP, % of control: 86.6; viability (ATP), % of control: 96.9
Rpf2 (ribosome production factor 2 homolog) #1 | GFP, % of control: 74.9; viability (ATP), % of control: 95.6
Rpf2 (ribosome production factor 2 homolog) #3 | GFP, % of control: 63.4; viability (ATP), % of control: 67
Gpr135 (G protein-coupled receptor 135) #3 | GFP, % of control: 107; viability (ATP), % of control: 63.8
Gpr135 (G protein-coupled receptor 135) #2 | GFP, % of control: 58.6; viability (ATP), % of control: 59.8
Rpf2 (ribosome production factor 2 homolog) #2 | GFP, % of control: 49.1; viability (ATP), % of control: 43.5
